The source of these data is the supplement of paper PMC12067093, “Discovery and optimisation of a covalent ligand for TRIM25 and its application to targeted protein ubiquitination” (Chemical Science, 2025).

By UniProt entry, the sequences of proteins in these tests, tags left out. Where a name states a change or a piece, a line headed by the entry shows the natural chain unless it says otherwise.
UniProt P22830: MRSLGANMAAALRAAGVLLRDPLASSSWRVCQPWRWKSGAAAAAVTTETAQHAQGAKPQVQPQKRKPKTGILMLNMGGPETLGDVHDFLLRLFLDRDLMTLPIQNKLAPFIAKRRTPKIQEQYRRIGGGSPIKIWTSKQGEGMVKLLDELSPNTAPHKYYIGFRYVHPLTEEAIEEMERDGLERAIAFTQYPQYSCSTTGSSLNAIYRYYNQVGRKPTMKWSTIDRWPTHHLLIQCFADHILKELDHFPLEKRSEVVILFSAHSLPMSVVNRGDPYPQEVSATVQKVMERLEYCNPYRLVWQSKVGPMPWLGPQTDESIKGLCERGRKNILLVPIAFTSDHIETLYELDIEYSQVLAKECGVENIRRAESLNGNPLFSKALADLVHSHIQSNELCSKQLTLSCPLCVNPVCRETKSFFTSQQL
UniProt Q9NSD9: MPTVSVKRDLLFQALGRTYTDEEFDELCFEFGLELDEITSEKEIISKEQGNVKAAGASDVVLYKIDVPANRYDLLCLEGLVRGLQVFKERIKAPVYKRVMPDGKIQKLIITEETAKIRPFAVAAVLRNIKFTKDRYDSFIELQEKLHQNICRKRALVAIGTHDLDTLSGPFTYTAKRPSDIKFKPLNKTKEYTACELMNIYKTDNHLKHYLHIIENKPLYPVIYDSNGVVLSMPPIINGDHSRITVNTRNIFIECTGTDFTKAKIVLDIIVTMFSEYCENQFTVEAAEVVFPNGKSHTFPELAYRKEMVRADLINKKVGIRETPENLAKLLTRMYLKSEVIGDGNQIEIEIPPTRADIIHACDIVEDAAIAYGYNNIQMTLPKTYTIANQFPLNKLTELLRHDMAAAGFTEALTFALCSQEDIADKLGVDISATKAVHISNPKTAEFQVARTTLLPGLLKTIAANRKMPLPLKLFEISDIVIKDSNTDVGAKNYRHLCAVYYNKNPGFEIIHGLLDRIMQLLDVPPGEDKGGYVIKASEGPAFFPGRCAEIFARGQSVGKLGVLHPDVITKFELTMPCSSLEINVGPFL
UniProt Q9BYI3: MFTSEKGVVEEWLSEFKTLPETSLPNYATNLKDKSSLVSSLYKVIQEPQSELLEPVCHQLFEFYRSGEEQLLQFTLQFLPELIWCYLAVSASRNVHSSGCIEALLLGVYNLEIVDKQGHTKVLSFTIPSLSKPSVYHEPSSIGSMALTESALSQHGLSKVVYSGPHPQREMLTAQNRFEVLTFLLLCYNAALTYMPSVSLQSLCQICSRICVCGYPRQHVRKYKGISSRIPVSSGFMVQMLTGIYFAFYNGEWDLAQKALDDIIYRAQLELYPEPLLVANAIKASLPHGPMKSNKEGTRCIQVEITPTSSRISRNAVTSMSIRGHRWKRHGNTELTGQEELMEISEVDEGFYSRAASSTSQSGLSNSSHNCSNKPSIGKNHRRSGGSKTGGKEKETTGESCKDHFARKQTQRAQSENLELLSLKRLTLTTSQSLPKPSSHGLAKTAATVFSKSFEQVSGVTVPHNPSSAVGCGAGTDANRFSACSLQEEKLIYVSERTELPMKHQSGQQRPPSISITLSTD
UniProt O15360: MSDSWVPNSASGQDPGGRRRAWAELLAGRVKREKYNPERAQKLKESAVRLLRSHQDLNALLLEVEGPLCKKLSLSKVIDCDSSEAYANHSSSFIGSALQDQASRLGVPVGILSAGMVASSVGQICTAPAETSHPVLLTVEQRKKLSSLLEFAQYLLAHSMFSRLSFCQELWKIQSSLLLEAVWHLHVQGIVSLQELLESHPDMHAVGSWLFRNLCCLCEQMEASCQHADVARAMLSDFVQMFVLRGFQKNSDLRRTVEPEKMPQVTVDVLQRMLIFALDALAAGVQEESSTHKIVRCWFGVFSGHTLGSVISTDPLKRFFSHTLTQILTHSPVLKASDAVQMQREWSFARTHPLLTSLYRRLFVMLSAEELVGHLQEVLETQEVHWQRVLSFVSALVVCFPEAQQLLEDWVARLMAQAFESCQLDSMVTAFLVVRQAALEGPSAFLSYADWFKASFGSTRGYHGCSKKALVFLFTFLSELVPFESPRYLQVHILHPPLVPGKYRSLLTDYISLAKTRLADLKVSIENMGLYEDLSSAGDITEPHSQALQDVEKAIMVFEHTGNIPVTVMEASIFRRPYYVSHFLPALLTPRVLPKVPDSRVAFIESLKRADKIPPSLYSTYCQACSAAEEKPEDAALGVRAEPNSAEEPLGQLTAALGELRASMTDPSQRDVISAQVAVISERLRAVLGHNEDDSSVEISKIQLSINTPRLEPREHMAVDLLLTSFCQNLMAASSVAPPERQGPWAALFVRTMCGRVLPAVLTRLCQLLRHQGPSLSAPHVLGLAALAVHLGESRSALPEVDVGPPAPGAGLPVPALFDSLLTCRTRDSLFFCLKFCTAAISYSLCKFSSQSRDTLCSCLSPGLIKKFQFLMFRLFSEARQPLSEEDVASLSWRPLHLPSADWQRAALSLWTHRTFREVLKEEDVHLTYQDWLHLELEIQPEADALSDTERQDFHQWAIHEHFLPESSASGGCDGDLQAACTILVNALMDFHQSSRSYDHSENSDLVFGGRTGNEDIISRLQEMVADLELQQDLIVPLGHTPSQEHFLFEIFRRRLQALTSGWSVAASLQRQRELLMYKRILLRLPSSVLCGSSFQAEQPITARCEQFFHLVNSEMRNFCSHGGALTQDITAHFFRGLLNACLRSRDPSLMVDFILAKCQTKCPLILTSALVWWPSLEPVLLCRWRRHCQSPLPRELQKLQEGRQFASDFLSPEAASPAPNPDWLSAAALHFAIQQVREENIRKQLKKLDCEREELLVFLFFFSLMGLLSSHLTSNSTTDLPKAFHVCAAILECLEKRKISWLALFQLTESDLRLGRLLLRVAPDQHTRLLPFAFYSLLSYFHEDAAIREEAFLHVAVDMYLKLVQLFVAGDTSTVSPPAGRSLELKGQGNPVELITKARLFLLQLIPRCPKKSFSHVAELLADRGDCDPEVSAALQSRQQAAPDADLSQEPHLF
UniProt Q9BXW9: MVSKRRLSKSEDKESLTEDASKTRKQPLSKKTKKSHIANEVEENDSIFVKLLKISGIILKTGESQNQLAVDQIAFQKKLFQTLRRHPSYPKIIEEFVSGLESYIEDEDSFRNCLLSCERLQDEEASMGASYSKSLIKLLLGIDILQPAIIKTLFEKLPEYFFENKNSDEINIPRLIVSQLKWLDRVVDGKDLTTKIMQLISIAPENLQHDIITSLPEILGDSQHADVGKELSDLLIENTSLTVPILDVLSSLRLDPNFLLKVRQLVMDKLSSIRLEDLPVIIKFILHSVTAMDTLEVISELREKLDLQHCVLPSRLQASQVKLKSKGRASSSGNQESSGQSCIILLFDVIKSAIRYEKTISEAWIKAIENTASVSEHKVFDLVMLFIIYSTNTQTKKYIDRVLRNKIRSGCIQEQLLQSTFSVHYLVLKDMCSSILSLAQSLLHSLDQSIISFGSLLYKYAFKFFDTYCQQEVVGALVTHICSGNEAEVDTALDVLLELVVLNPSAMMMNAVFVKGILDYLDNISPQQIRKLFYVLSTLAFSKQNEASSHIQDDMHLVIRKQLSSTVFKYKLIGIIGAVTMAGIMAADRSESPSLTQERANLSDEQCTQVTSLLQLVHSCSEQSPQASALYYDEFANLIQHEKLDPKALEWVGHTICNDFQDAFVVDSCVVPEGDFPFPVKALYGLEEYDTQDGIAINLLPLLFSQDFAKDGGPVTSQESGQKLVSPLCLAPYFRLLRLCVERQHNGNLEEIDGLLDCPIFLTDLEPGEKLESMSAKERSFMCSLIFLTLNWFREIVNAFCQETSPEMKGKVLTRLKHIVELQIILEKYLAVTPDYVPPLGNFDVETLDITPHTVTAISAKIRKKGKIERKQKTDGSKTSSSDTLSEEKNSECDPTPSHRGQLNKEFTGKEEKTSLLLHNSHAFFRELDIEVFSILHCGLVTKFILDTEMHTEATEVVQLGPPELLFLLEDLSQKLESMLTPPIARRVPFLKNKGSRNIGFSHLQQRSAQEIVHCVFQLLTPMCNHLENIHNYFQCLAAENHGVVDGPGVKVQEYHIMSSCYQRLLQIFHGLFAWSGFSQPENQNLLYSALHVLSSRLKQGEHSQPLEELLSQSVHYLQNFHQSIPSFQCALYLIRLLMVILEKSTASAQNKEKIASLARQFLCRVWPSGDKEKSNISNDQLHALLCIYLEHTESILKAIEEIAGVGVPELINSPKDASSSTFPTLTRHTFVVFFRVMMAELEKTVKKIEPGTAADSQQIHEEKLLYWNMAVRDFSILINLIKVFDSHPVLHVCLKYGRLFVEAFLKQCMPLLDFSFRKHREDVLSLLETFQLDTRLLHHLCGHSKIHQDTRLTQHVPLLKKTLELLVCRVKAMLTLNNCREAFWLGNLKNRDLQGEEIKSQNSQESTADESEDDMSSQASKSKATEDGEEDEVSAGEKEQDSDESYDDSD
UniProt P37268: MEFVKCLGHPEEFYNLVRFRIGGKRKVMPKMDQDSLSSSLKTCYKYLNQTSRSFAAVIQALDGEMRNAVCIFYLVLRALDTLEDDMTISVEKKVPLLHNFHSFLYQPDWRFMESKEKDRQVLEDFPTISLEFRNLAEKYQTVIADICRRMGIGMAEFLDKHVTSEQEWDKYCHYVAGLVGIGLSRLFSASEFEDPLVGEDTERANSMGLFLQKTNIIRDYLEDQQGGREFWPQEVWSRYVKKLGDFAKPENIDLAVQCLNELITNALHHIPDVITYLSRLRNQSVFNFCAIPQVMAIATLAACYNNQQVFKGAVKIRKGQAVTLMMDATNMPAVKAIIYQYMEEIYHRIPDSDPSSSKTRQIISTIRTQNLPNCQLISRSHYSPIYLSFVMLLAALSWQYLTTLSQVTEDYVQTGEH
UniProt O94868: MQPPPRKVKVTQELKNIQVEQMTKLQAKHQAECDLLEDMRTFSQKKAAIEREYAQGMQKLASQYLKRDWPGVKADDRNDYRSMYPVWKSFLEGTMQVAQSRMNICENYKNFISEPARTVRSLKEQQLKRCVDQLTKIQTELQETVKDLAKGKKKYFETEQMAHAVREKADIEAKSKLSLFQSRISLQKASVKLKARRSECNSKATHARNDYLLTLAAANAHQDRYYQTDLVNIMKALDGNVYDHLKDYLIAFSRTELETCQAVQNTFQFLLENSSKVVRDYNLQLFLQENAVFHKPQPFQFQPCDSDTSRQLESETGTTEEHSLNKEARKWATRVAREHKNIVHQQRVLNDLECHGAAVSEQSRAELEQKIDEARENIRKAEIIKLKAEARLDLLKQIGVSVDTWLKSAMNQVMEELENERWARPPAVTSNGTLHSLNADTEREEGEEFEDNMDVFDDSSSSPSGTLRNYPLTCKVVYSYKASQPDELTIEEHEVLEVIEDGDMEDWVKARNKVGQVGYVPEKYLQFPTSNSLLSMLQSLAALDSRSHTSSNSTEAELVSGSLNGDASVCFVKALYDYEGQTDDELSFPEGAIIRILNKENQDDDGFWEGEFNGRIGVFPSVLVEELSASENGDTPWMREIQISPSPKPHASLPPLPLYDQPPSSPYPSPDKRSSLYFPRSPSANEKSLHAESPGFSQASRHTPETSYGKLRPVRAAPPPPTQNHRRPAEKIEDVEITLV
UniProt P0C2W1: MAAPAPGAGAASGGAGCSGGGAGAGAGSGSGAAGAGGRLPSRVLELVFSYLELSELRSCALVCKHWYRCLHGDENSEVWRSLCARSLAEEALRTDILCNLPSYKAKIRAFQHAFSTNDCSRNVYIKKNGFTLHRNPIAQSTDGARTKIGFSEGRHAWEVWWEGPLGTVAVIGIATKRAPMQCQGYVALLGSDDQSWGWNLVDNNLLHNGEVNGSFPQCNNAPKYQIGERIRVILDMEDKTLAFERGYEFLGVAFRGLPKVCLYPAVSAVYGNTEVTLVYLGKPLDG
UniProt Q6PCT2: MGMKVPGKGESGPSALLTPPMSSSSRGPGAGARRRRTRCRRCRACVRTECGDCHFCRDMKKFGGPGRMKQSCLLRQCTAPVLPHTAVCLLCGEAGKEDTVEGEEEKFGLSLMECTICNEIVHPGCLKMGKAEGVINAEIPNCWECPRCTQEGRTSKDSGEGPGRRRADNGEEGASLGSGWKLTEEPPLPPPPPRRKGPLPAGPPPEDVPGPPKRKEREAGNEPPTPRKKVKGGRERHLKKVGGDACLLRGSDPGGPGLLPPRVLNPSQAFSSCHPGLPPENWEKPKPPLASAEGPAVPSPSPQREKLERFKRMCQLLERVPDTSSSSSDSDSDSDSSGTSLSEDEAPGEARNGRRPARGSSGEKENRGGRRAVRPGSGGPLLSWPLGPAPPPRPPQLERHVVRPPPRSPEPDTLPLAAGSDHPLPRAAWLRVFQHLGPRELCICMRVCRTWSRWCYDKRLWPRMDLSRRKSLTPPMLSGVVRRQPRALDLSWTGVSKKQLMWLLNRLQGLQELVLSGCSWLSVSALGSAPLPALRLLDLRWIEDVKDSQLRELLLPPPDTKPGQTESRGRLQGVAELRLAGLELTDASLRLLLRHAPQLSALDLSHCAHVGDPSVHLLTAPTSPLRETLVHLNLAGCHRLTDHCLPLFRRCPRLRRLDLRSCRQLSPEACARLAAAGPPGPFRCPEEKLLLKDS

This is one part of the list.

Compound in the assay: CC1Cc2ccccc2N1C(=O)C1CCCN(C1)C(=O)CCl (mixture of isomers) [TRIM25 ligand 11 (diastereomer mixture)]
The assay can be described thus: probe-labelled cysteine peptide fold change vs DMSO (competition) (log2 fold change); higher = less target engagement (more negative = stronger competition). Conditions: THP-1, incubation time: 4 h.
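Also: competitive chemoproteomic profiling in live THP-1 cells with an iodoacetamide desthiobiotin (IA-DTB) probe, comparing probe-labelled peptide intensities in compound-treated cells against DMSO-treated controls.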

Turning to “FECH_P22830_403_QLTLSCPLCVNPVCR (UniProt P22830)”, the “probe-labelled cysteine peptide fold change” value reads like this: (10 µM) 0.0323; (50 µM) 0.0221.

Consider “FARSB_Q9NSD9_76_IDVPANRYDLLCLEGLVR (UniProt Q9NSD9)”, for which the “probe-labelled cysteine peptide fold change” value was -0.137 (10 µM) and -0.0292 (50 µM).

For “FAM208B_Q5VWN6_1441_SNQISQCESEDLGITEK (UniProt Q5VWN6)”, the “probe-labelled cysteine peptide fold change” value by setting is: (10 µM) 0.0807; (50 µM) -0.0487.

For the target “FEN1_P39748_141_QHNDECK (UniProt P39748)”, the “probe-labelled cysteine peptide fold change” value reads like this: (10 µM) -0.134; (50 µM) -0.124.

In the case of “FARSA_Q9Y285_493_VNLQMVYDSPLCR (UniProt Q9Y285)”, the “probe-labelled cysteine peptide fold change” value runs as follows: (10 µM) -0.0524; (50 µM) -0.00472.

In the case of “FAM126A_Q9BYI3_57_VIQEPQSELLEPVCHQLFEFYR (UniProt Q9BYI3)”, the “probe-labelled cysteine peptide fold change” value (10 µM) is -0.0142 and the “probe-labelled cysteine peptide fold change” value (50 µM) was determined as 0.114.

As for “FBXW11_Q9UKB1_393_VWSTSTCEFVR (UniProt Q9UKB1)”, the “probe-labelled cysteine peptide fold change” value runs as follows: (10 µM) 0.0312; (50 µM) 0.174.

Regarding “FANCA_O15360_69_SHQDLNALLLEVEGPLCK (UniProt O15360)”, the “probe-labelled cysteine peptide fold change” value (10 µM) was -0.121 and the “probe-labelled cysteine peptide fold change” value (50 µM) was -0.255.

As for “FARSB_Q9NSD9_498_HLCAVYYNK (UniProt Q9NSD9)”, the “probe-labelled cysteine peptide fold change” value runs as follows: (10 µM) 0.0584; (50 µM) 0.0475.

In the case of “FEM1B_Q9UK73_409_APDIECVLR (UniProt Q9UK73)”, the “probe-labelled cysteine peptide fold change” value is -0.111 (10 µM) and -0.27 (50 µM).

“FANCA_O15360_1120_NFCSHGGALTQDITAHFFR (UniProt O15360)”: the “probe-labelled cysteine peptide fold change” value is, setting by setting: (10 µM) -0.00684; (50 µM) 0.235.

Regarding “FASTKD2_Q9NYY8_645_SAYCLGSSHPR (UniProt Q9NYY8)”, the “probe-labelled cysteine peptide fold change” value reads like this: (10 µM) 0.348; (50 µM) 0.181.

Regarding FBRS_Q9HAH7_87_WCAMHVR (UniProt Q9HAH7), the “probe-labelled cysteine peptide fold change” value (10 µM) was -0.0949 and the “probe-labelled cysteine peptide fold change” value (50 µM) is 0.148.

In the case of “FASN_P49327_2369_AKLTPGCEAEAETEAICFFVQQFTDMEHNR (UniProt P49327)”, the “probe-labelled cysteine peptide fold change” value was -0.0758 (10 µM) and -0.005 (50 µM).

On to “FAM129A_Q9BZQ8_177_HGYFCFHEAADQK (UniProt Q9BZQ8)”, for which the “probe-labelled cysteine peptide fold change” value (10 µM) is 0.0728 and the “probe-labelled cysteine peptide fold change” value (50 µM) amounted to 0.116.

Consider “FAR2_Q96K12_111_EDMQELLSCTNIIFHCAATVR (UniProt Q96K12)”, for which the “probe-labelled cysteine peptide fold change” value runs as follows: (10 µM) 0.285; (50 µM) 0.135.

For the target “FANCD2_Q9BXW9_310_LDLQHCVLPSR (UniProt Q9BXW9)”, the “probe-labelled cysteine peptide fold change” value reads like this: (10 µM) -0.0442; (50 µM) -0.0094.

“FER_P16591_785_MSAPQHCPEDISK (UniProt P16591)”: the “probe-labelled cysteine peptide fold change” value reads like this: (10 µM) -0.153; (50 µM) -0.15.

As to “FDFT1_P37268_6_CLGHPEEFYNLVR (UniProt P37268)”, the “probe-labelled cysteine peptide fold change” value (10 µM) was -0.139 and the “probe-labelled cysteine peptide fold change” value (50 µM) was -0.148.

On to “FBXO7_Q9Y3I1_286_RLQLLPESFICK (UniProt Q9Y3I1)”, for which the “probe-labelled cysteine peptide fold change” value reads like this: (10 µM) -0.0129; (50 µM) 0.128.

“FCHSD2_O94868_200_SECNSK (UniProt O94868)”: the “probe-labelled cysteine peptide fold change” value (10 µM) is -0.0838 and the “probe-labelled cysteine peptide fold change” value (50 µM) is -0.0373.

For the target “FARSB_Q9NSD9_418_HDMAAAGFTEALTFALCSQEDIADK (UniProt Q9NSD9)”, the “probe-labelled cysteine peptide fold change” value (10 µM) is -0.0351 and the “probe-labelled cysteine peptide fold change” value (50 µM) is -0.0054.

As for “FAM98C_Q17RN3_92_ELHCPDR (UniProt Q17RN3)”, the “probe-labelled cysteine peptide fold change” value is, setting by setting: (10 µM) -0.0843; (50 µM) -0.0717.

“FASN_P49327_223_AFDTAGNGYCR (UniProt P49327)”: the “probe-labelled cysteine peptide fold change” value (10 µM) came to 0.027 and the “probe-labelled cysteine peptide fold change” value (50 µM) is 0.0842.

As for “FAM76B_Q5HYJ3_73_PCQYCNIIAAFIGTK (UniProt Q5HYJ3)”, the “probe-labelled cysteine peptide fold change” value by setting is: (10 µM) -0.263; (50 µM) -0.0696.

In the case of “FDXR_P22570_42_TPQICVVGSGPAGFYTAQHLLK (UniProt P22570)”, the “probe-labelled cysteine peptide fold change” value runs as follows: (10 µM) -0.14; (50 µM) 0.136.

As to “FASN_P49327_1403_KSFYGSTLFLCR (UniProt P49327)”, the “probe-labelled cysteine peptide fold change” value (10 µM) is -0.118 and the “probe-labelled cysteine peptide fold change” value (50 µM) came out at 0.0368.

On to “FBXW2_Q9UKT8_189_LWDVSTGQCVYGIQTHTCAAVK (UniProt Q9UKT8)”, for which the “probe-labelled cysteine peptide fold change” value runs as follows: (10 µM) 0.114; (50 µM) 0.156.

As for “FBXO45_P0C2W1_119_AFQHAFSTNDCSR (UniProt P0C2W1)”, the “probe-labelled cysteine peptide fold change” value runs as follows: (10 µM) 0.166; (50 µM) 0.0956.

As for “FAM208A_Q9UK61_761_QQQDTCNSGIADIHR (UniProt Q9UK61)”, the “probe-labelled cysteine peptide fold change” value (10 µM) is 0.000862 and the “probe-labelled cysteine peptide fold change” value (50 µM) is -0.184.

As to “FBXL19_Q6PCT2_644_LTDHCLPLFR (UniProt Q6PCT2)”, the “probe-labelled cysteine peptide fold change” value (10 µM) is -0.154 and the “probe-labelled cysteine peptide fold change” value (50 µM) is -0.18.

As for “FAM98B_Q52LJ0_216+220_INDALSCEYECR (UniProt Q52LJ0)”, the “probe-labelled cysteine peptide fold change” value is -0.033 (10 µM) and -0.0928 (50 µM).

For the target “FASN_P49327_1448+1459_AINCATSGVVGLVNCLR (UniProt P49327)”, the “probe-labelled cysteine peptide fold change” value was -0.0183 (10 µM) and -0.0543 (50 µM).

As to “FBXL20_Q96IG2_135_TTDATCTSLSK (UniProt Q96IG2)”, the “probe-labelled cysteine peptide fold change” value is, setting by setting: (10 µM) 0.0516; (50 µM) -0.102.

Turning to “FECH_P22830_395_ALADLVHSHIQSNELCSK (UniProt P22830)”, the “probe-labelled cysteine peptide fold change” value was -0.03 (10 µM) and -0.0606 (50 µM).

Take “FCHSD2_O94868_354_VLNDLECHGAAVSEQSR (UniProt O94868)”: the “probe-labelled cysteine peptide fold change” value by setting is: (10 µM) 0.00661; (50 µM) -0.0599.

Turning to “FBXL18_Q96ME1_613_LEQPYFSANAQFFQALSQCPSLQR (UniProt Q96ME1)”, the “probe-labelled cysteine peptide fold change” value is, setting by setting: (10 µM) 0.167; (50 µM) 0.0431.

On to “FANCD2_Q9BXW9_729_LVSPLCLAPYFR (UniProt Q9BXW9)”, for which the “probe-labelled cysteine peptide fold change” value runs as follows: (10 µM) -0.128; (50 µM) 0.0371.

For the target “FBXL19_Q6PCT2_637_ETLVHLNLAGCHR (UniProt Q6PCT2)”, the “probe-labelled cysteine peptide fold change” value (10 µM) came out at 0.0561 and the “probe-labelled cysteine peptide fold change” value (50 µM) was -0.0306.
